Target: T1, recombinant human methionine adenosyltransferase α2 (MATα2) (human, UniProt P31153 1-395)
T1 construct: human MATα2, pT7.7-MAT2A including the human MAT2A ORF; also called pT7.7-MAT2A; MATα2 homo-oligomers; source: extracts also named for the pull-down
Assay: pull-down; Glutathione-Sepharose loaded with GST-PDRG1 or truncated forms and washed; incubated 1 hour at 4°C with recombinant MATα2 or MATβ alone (purified, 100 μg; extracts also named in the methods) plus excess GST extract; blots with anti-MATα2 and anti-MATβ
Conditions: both partners purified

binding result: binds
B1: GST-ΔC-PDRG1 (domain or fragment, rat)
chain: GIPEFLCGTMVSPEADRVLRYLVEVEELAEAVLSDKRQIVDLDTKRNQNREGLRALQKDPSVSEDVMVCFGNMFIKMPHLKTKEMIQKDQEHLDKEIERLRSQLKVKVNRLLEAQ
notes: 9 amino acid linker between GST and PDRG1, as in pGEX-PDRG1 from which this plasmid was made; rat PDRG1 with a new stop codon at position 321-323 of the ORF; also called pGEX-ΔC-PDRG1; source: E. coli BL21(DE3) Codon Plus, soluble extract loaded on Glutathione-Sepharose; not shown: GST, N-terminal, kept
